Here are results for 104 sequences from PubChem BioAssay AID1347423 (Functional Genomics Laboratory (NCATS/FGL), 2020).

Screen size: about 52,000 sequences; about 210 (0.4%) were called active.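 Rule for the calls: active = gene whose silencing raises cell survival under the drug, median off-target-corrected z-score across its silencing RNAs 2 or more; inactive = the rest.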 Some of the results follow.

This assay in a line: Resistance to Poly (ADP-Ribose) Polymerase inhibitor: Gene Identification via Genome-wide siRNA Screen. Conditions: mouse BRCA2 R2336H ES cells, olaparib, CellTiter-Glo viability; active compounds read high. Put shortly: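 Mouse BRCA2 R2336H ES cells were reverse-transfected with siRNA (20 nM final), treated at 48 h with 500 nM olaparib, and read by CellTiter-Glo after 72 h. Scores: MAD-based z per siRNA, median per gene, seed off-target correction.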
(In general: In ATP-based viability assays light output follows the ATP content of the culture.)
GGUCCAUCAGGAAAAUCAATT against Obox6: the z-score was inactive: 0.891.

With GGUUGGUGAUCAACAUCUCTT against Kcna6, the z-score was inactive: -1.07.

On to “GGAAAUCAUUCUCCUUCAUTT against 6720455I24Rik”, for which the z-score is inactive: 0.687.

As for “GCCCAACUACCAUAGCCUATT against 2400001E08Rik”, the z-score was inactive: 0.252.

For the sequence CCUCGAAUCCAGUGUCAGATT against Fxyd5, the z-score is inactive: 0.807.

Consider GGUGUUGUAAGUGAUAAGATT against Serpina5, for which the z-score was inactive: 1.45.

As to CCACAAGUUCCACACUCCATT against Olfr1163, the z-score was inactive: 0.09.

GGAAAUGACUACUAUGACCTT against Slc12a4: the z-score was inactive: 0.93.

Turning to CCUAACGUGCUUCCCACCATT against Arsa, the z-score is inactive: -0.95.

Turning to GGAAGUUUGUAUCAAUCCATT against Smad5, the z-score was inactive: 1.46.

In the case of GGUCAACAAGCAUGCAUUUTT against Wars, the z-score is inactive: -3.29.

Turning to “GGAGAUUAUUACUUGAUGGTT against 4930539P14Rik”, the z-score is inactive: 1.57.

Turning to GCGGUACUGUCAGUGCAAUTT against Pscd1, the z-score is inactive: 0.739.

As to GGAGUAUGUGGAAUGUCUATT against Creb3l1, the z-score was inactive: -0.648.

“GCUGAAGACGUGAUUUCCUTT against 5930403N24Rik”: the z-score was inactive: -0.404.

With “CCUGUUAGCUAGAGUAGGATT against C130057D23Rik”, the z-score is inactive: -1.4.

Consider UGCCUAUUUGGGUAUUAUGTT against H2-M10.3, for which the z-score was inactive: 1.12.

As to GGUUCAUGGGUUUUAAGUGTT against Sui1-rs1, the z-score was inactive: 0.721.

Regarding CCUUCAAUAUCAGUUUGGGTT against Olfr10, the z-score is inactive: 1.07.

On to GGUAAUGACAACUAUAGAGTT against Tm4sf6, for which the z-score was inactive: 0.637.

Regarding UAUUUUGUUGCUCUCUCAGTT against Olfr97, the z-score is inactive: 1.

With CCUGUAUGGUCAAAGGAGUTT against Il6ra, the z-score was inactive: -0.112.

For GGGACAACAUUCAAAGGUCTT against Pwwp1, the z-score was inactive: -0.508.

Regarding “GCCAUACUCUUUCUAAAAUTT against 2310003P10Rik”, the z-score is inactive: 1.29.

As for GGCAUAAGAGAAAAGAUUUTT against Avpr1a, the z-score was inactive: 0.803.

In the case of GGGUUACUUCAACUCAUGCTT against Wdr22, the z-score is inactive: 0.216.

GGAAUCUGCCAUUUCAGAUTT against Zbtb5: the z-score was inactive: 0.611.

Turning to CGUACAAUAGCUAGGCAUUTT against Ankrd22, the z-score is inactive: -0.687.

On to CCGUGAUCCCAUCAUGCAUTT against Ereg, for which the z-score is inactive: 0.0976.

For GGCGGAGGAAGAGUUCAACTT against Atp6v1e2, the z-score was inactive: 0.0029.

For GGACAACACCAGUGACAUCTT against Gzmf, the z-score was inactive: -1.75.

Consider GGCUCUUCUACUCCUUUUUTT against Lsm2, for which the z-score was inactive: -1.96.

Consider CGAUAAGAACACCUAUAUUTT against Sf3b1, for which the z-score is inactive: -2.47.

In the case of GGAAAAUCAAGAUGAGAUATT against Stag2, the z-score is inactive: 0.0332.

GGAAAGAGGAAAACUCUCCTT against Pole4: the z-score is inactive: 0.702.

With CCAUCAAUGUAAUCUUCCATT against Zfp386, the z-score is inactive: -0.559.

For the sequence GGCUUAUGUGAUUUUGAUUTT against Gpr63, the z-score was inactive: -0.084.

For the sequence “CCCUUUGUUCAAUGUCCCATT against 6330416L11Rik”, the z-score was inactive: -1.44.

In the case of GAAUAUGUGGCUCUGGGUCTT against G6pc3, the z-score is inactive: 0.347.

In the case of GGCCUGAAAUCAAACGGGUTT against Smarcd1, the z-score was inactive: -1.04.

With GCUAUUGGUGCUUCAGUCCTT against AW540478, the z-score is inactive: -0.0672.

For GGCCAUUUCAAGACUCUCGTT against Cd109, the z-score was inactive: 1.17.

Turning to GGCACCUCUGCUUUUAAAGTT against Ftsj2, the z-score was inactive: -0.568.

With GGGAUAAGAUUUUCUUGAUTT against Dock2, the z-score is inactive: 0.168.

In the case of CGUGGAACUCUCAACCAAGTT against Rbm14, the z-score was inactive: 0.885.

With “CCAUACAAGUAUCCGAACUTT against 1700102P08Rik”, the z-score was inactive: 0.267.

Turning to CCUCAAUAGCUCUACUGAATT against Slc17a3, the z-score was inactive: -0.535.

Regarding GGAAGAGGAGGAGUACAAGTT against Fnbp1, the z-score is inactive: 1.36.

As to GGCUUUAGUAGACUACUUCTT against Osp94, the z-score is inactive: -1.08.

Consider GGAGGUUAAUUCAGAGCUGTT against Nrf1, for which the z-score was inactive: -0.838.

On to GAUCUAGGACAGCUUAGAUTT against Avpr1b, for which the z-score is inactive: 0.247.

Take GGUAAUUGUUGUUUUUGGGTT against Ppyr1: the z-score was inactive: 0.418.

As to “GGAGCUACAGGCUAUCAGUTT against 9230105K17Rik”, the z-score is inactive: 0.825.

For GGCCUAUAGACCUAAUUGUTT against V1rl1, the z-score was inactive: 0.18.

For the sequence GCGAAUUACAUGAAAACAUTT against Pamci, the z-score is inactive: 0.733.

As for “CGACUGGAUACCAAAUUACTT against 2610528A15Rik”, the z-score was inactive: -0.737.

For the sequence “GCCCAUUGAUCCGGAGUAATT against 0710001B24Rik”, the z-score is inactive: -1.74.

GCGACUAGAGAUCAAUUGCTT against Banp: the z-score was inactive: 0.58.

Take GCGGUGCCAAAGGUAUUAATT against Rad51ap1: the z-score was inactive: 0.37.

For “GGGUGUGAGUGAUUAUGAATT against 1500019O16Rik”, the z-score was inactive: 0.398.

In the case of GCCGAAUAUUUCUACCUAATT against Fosl2, the z-score was inactive: -0.535.

Consider GCCAUCGUCUACCUAUGACTT against Olfr358, for which the z-score is inactive: 0.116.

As to GGUUGUUGGACCAGUGUAUTT against Ranbp6, the z-score was inactive: -0.168.

As to CGGCUCAUCCGAUAUAUCCTT against Hcn2, the z-score was inactive: 2.63.

On to GGCGGCACGUUCACCUAAATT against Rnps1, for which the z-score is inactive: 0.0506.

In the case of GGAAAGAACUGAGUUCUCGTT against Ddx19, the z-score was inactive: -0.543.

As for GAGCUUCUGGCUGAGAUAATT against Espn, the z-score was inactive: -2.24.

For the sequence GGAAGACACAGUUUCUCUUTT against Hs6st3, the z-score is inactive: 0.764.

In the case of GGGAUGAGAAAGUUCAGUUTT against Cox4i1, the z-score is inactive: -1.24.

On to “CCAUGAGACCUCUGAUAAATT against 5730596K20Rik”, for which the z-score is inactive: -0.418.

Regarding GGAGAUUUGCUCCUUAGUGTT against Pcdhb19, the z-score was inactive: 2.49.

For the sequence GCAUCGAUAGUAUACUGUGTT against Srr, the z-score was inactive: -0.519.

For the sequence GGUUCUACGGUCCAAAGUUTT against Fetub, the z-score was inactive: -2.12.

As for GCGUGCAUAUCUUAGAAAUTT against Zfp51, the z-score is inactive: -0.712.

Regarding CGUAGAAGAAUCUGCAUCATT against Ccl28, the z-score was inactive: 2.39.

Regarding “GGCUACGAGUCCUCUGAAGTT against 1810045K07Rik”, the z-score was inactive: -0.732.

Regarding GGUGUUCCAGGUUAAAAUCTT against Kdelc1, the z-score is inactive: -0.395.

For “GCGUAUAGCAGAAAACAGGTT against 2210403B10Rik”, the z-score was inactive: 0.441.

GCCCUGUAUUUUGAAUUACTT against Bmpr1b: the z-score was inactive: -0.155.

With GGCUCAUUGAGCACAUCAGTT against Zfpn1a5, the z-score is inactive: 1.39.

As for GUUCAUCAUUCGAAUCUGGTT against Kcnq5, the z-score was inactive: 2.35.

Regarding GGUAGAUUUUGAUGAAUUCTT against Caln1, the z-score was inactive: 0.145.

Consider “GGCCGGGCAUUCUAAAGAATT against C330029B10Rik”, for which the z-score is inactive: -0.879.

With “GGCCGUAGGCAAUAUCUUATT against D930046M03”, the z-score was inactive: 0.285.

For the sequence GGUAUCACACUGGAAAGAATT against Zfp78, the z-score was inactive: -0.155.

As to CGCGAGGUCUUCGAAAGAATT against Siva, the z-score was inactive: -2.53.

With UGUAACCAUGGUUACCGUGTT against Olfr1513, the z-score was inactive: -0.767.

For GCUUUGCACAAAACACUUATT against LOC545471, the z-score was inactive: -0.00656.

With GGAAGAGGGUUAAGAAAACTT against Nnat, the z-score is inactive: 1.32.

Consider CCUUACGAAAUAAGGUAUUTT against Loxl3, for which the z-score is inactive: -0.0986.

GCACGUCCUCGAUCUCUGUTT against Extl3: the z-score was inactive: 0.464.

For GGUGACAAAACCAUUUCCUTT against Olfr810, the z-score is inactive: 0.351.

CCUAUAUUCGGAGUGCAGUTT against Cops2: the z-score is inactive: -2.23.

Take GGCCAAGAACCGCUUUCACTT against Hesx1: the z-score was inactive: 0.713.

For CAGGAAAUUAGCGAUGUGGTT against Abl2, the z-score was inactive: -0.771.

Regarding GCAGUCUUCCCUCAUCCUUTT against Cox8a, the z-score was inactive: 0.216.

In the case of “GGGAGUUUCAUUUUGAAAATT against 3830408P04Rik”, the z-score is inactive: -0.219.

As for GGACAAUCUUUACUUCCUATT against Chx10, the z-score is inactive: -1.28.

Consider GCCUGCUCUUGAAGGAUAATT against Ptpn9, for which the z-score is active: 1.13.

For “GCUUGUUCUCCGAAAAUGGTT against G431001I09Rik”, the z-score is inactive: 0.677.

In the case of GCCAAAUUCUGGCUUCUUCTT against Cdc26, the z-score was inactive: 0.813.

On to GCUGUAGCUCCAACAAUUUTT against Olfr1442, for which the z-score was inactive: -1.31.

With GGAGAACCAUAAUAAGAGUTT against Tnfrsf26, the z-score was inactive: -0.801.

In the case of GCUAUUACACCAGUUUUAATT against D3Jfr1, the z-score was inactive: 0.419.
